In paper PMC11204507, “Mechanistic Insights into the Neurotoxicity of 2,5-Dimethoxyphenethylamines (2C) and Corresponding N-(2-methoxybenzyl)phenethylamine (NBOMe) Drugs” (Journal of Xenobiotics, 2024):

Tested on: primary rat cortical cultures
Assay: Neutral red (NR) uptake cytotoxicity assay
Assay type: cell-based
Conditions: fitted NR curve, primary rat cortical neurons, 24 h
Method: Female Wistar rats were obtained from Charles River Laboratories. The animals were allowed free access to rat chow and water, being maintained on a 12 h/12 h light/dark cycle, under controlled temperature (20 ± 2 °C) and humidity (40–60%). Primary cortical cultures were prepared as previously described. Briefly, for embryo collection, the pregnant female Wistar rats were anesthetized with isoflurane and subsequently administered ketamine and xylazine (200 + 100 μL, intraperitoneal). At the end of the dissection procedures, the female rat was euthanized with the administration of sodium pentobarbital ([…]). The embryos were used between embryonic day 16 (E16) and E19, considering the mating day as E0. The embryos were dissected from the uterus, and the heads were decapitated and placed in ice-cold 0.1 M PBS supplemented with 0.6% (w/v) glucose. The cortex dissection was performed under a Zeiss stereo microscope (Stemi DV4). Following trypsinization (0.05% trypsin/EDTA) and DNAse I treatment, the tissue pieces were mechanically dissociated, and the cells seeded in freshly prepared neurobasal medium (supplemented with 2% B-27, 100 U/mL of penicillin, 100 μg/mL of streptomycin, and 1% GlutaMAX^TM supplement) at a density of 150,000 cells/cm^2 in 96-well plates precoated, overnight, with 0.05 mg/mL PLL solution (prepared in 0.1 M borate buffer, pH 8.5). The cultures were maintained at 37 °C in a 5% CO2 air atmosphere. The medium was renewed at 4 days in vitro (DIV) by replacing half of the volume with fresh medium, and the cultures were used at 8 DIV.
The differentiated SH-SY5Y cells (25,000 cells/cm^2) and primary rat cortical cultures (150,000 cells/cm^2) were seeded onto 96-well plates as previously described.
Accordingly, 6 days after seeding (differentiated SH-SY5Y cells) or at 8 DIV (primary cultures), the cells were exposed, for 24 h (37 °C, 5% CO2), to different concentrations of the drugs (0–1000 µM). Thus, the tested concentrations ranged from 0 to 1000 µM for 2C-T-2 and 2C-T-4; 0 to 500 µM for 2C-T-7; 0 to 250 µM for 25T2-NBOMe, and 0 to 100 µM for 25T4-NBOMe and 25T7-NBOMe.
The NR uptake assay is based on the detection of viable cells through the incorporation of the NR dye by the cell’s lysosomes. In brief, after 24 h of exposure to the tested drugs, the differentiated SH-SY5Y cells and primary rat cortical cultures were incubated with NR (50 µg/mL in complete medium) for 90 or 210 min, respectively, at 37 °C, in a 5% CO2-95% air atmosphere. To extract the absorbed dye, an acidified ethanol solution was used, and the absorbance was then measured at 540 nm in a multi-well plate reader (PowerWaveX, BioTek Instruments, Winooski, VT, USA). The cytotoxicity was estimated by the percentage of NR uptake relative to the control cells, and a minimum of 4 independent experiments were conducted in triplicate.

CCSc1cc(OC)c(CCN)cc1OC.Cl [2C-T-2, 2-(4-(ethylthio)-2,5-dimethoxyphenyl)ethan-1-aminium chloride]
Hill slope: 3.138

COc1cc(SC(C)C)c(OC)cc1CCN.Cl [2C-T-4, 2-(4-(isopropylthio)-2,5-dimethoxyphenyl)ethan-1-aminium chloride]
Hill slope: 2.808

CCCSc1cc(OC)c(CCN)cc1OC.Cl [2C-T-7, 2-(2,5-dimethoxy-4-(propylthio)phenyl)ethan-1-aminium chloride]
Hill slope: 2.560

CCSc1cc(OC)c(CCNCc2ccccc2OC)cc1OC.Cl [25T2-NBOMe, 2-(4-(ethylthio)-2,5-dimethoxyphenyl)-N-(2-methoxybenzyl)ethan-1-aminium chloride]
Hill slope: 3.102

COc1cc(SC(C)C)c(OC)cc1CCNCc1ccccc1OC.Cl [25T4-NBOMe, 2-(4-(isopropylthio)-2,5-dimethoxyphenyl)-N-(2-methoxybenzyl)ethan-1-aminium chloride]
Hill slope: 2.526

CCCSc1cc(OC)c(CCNCc2ccccc2OC)cc1OC.Cl [25T7-NBOMe, 2-(2,5-dimethoxy-4-(propylthio)phenyl)-N-(2-methoxybenzyl)ethan-1-aminium chloride]
Hill slope: 2.557
